Results are given in words; binding and its absence hold for the method and conditions named. Some entries that bind do so weakly or less than the wild type.

What all share (assay): self-oligomerization: protoxin with SUV liposomes and trypsin, SDS-PAGE and western blot
For orientation: A western blot detects proteins with antibodies after separation by electrophoresis.

In assay [1] the target is Cyt1Aa (SEQ ID NO: 2) (Bacillus thuringiensis) (UniProt P0A382).
Assay [2] concerns the target Cyt1Aa-A61C variant (SEQ ID NO: 6) (Bacillus thuringiensis) (UniProt P0A382).
The target of assay [3] is Cyt1Aa-A59C variant (SEQ ID NO: 4) (Bacillus thuringiensis) (UniProt P0A382).

B1: Cyt1Aa (SEQ ID NO: 2) (protein)
chain: VEDPNEINNLLSINEIDNPNYILQAIMLANAFQNALVPTSTDFGDALRFSMPKGLEIANTITPMGAVVSYVDQNVTQTNNQVSVMINKVLEVLKTVLGVALSGSVIDQLTAAVTNTFTNLNTQKNEAWIFWGKETANQTNYTYNVLFAIQNAQTGGVMYCVPVGFEIKVSAVKEQVLFFTIQDSASYNVNIQSLK
For the molecule B1, the binding entry in assay [1] is on record as “binds”.

B2: Cyt1Aa-A61C variant (SEQ ID NO: 6) (protein)
chain: VEDPNEINNLLSINEIDNPNYILQAIMLANCFQNALVPTSTDFGDALRFSMPKGLEIANTITPMGAVVSYVDQNVTQTNNQVSVMINKVLEVLKTVLGVALSGSVIDQLTAAVTNTFTNLNTQKNEAWIFWGKETANQTNYTYNVLFAIQNAQTGGVMYCVPVGFEIKVSAVKEQVLFFTIQDSASYNVNIQSLK
Take B2: the binding entry in assay [2] is “binds”.

B3: Cyt1Aa-A59C variant (SEQ ID NO: 4) (protein)
chain: VEDPNEINNLLSINEIDNPNYILQAIMLCNAFQNALVPTSTDFGDALRFSMPKGLEIANTITPMGAVVSYVDQNVTQTNNQVSVMINKVLEVLKTVLGVALSGSVIDQLTAAVTNTFTNLNTQKNEAWIFWGKETANQTNYTYNVLFAIQNAQTGGVMYCVPVGFEIKVSAVKEQVLFFTIQDSASYNVNIQSLK
With B3, in assay [3], the binding result is given as “binds”.

Source of the values: patent US20190185521A1.
